PubChem BioAssay AID652272 | Drosophila RNAi Screening Center, 2013

Assay: 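Genome-wide knock-down search for components of Hedgehog signalling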 (primary screen)
System: Drosophila clone 8 (Cl8) cells
Knock-down reagent: long dsRNA against Drosophila genes
Read-out: 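Firefly light from a Hedgehog-responsive ptc promoter reporter and Renilla reference light, both read on a plate reader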
Reading the numbers: firefly Hh reporter signal: higher = more ptc reporter light; Renilla reference signal: higher = more Renilla control light
Call rule: 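Hit when the z-score averaged over two replicates is under -2 or over +3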
Meaning of the calls: active = hit: reporter lowered or raised; inactive = not a hit
The screen tested about 21,000 reagents; below is an unselected part of those with a known target gene and a result. Of all reagents, 503 (2.4%) were called active. 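Raw plate light values, not normalised; calls rest on replicate z-scores that were not deposited; hits include reporter decreases as well as increases.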 Unmarked entries are inactive. Not stated in the record: the amount of reagent, the time to read-out.

| predicted target | DRSC id | firefly Hh reporter signal, replicate 1 | firefly Hh reporter signal, replicate 2 | firefly Hh reporter signal, replicate 3 | Renilla reference signal, replicate 1 | Renilla reference signal, replicate 2 |
| --- | --- | --- | --- | --- | --- | --- |
| fit | DRSC15280 | 9.42e5 | 2.29e5 | – | 37108 | 4898 |
| CG12522 | DRSC09088 | 1.09e5 | 1.87e5 | – | 2965 | 7544 |
| mRpS34 | DRSC09918 | 1.45e5 | – | – | 4835 | 3776 |
| eIF6 | DRSC04674 | 72394 | 54149 | – | 3972 | 2634 |
| MstProx | DRSC12458 | 1.62e5 | – | – | 3389 | – |
| MstProx | DRSC12601 | 70737 | 1.07e5 | – | 1738 | 3282 |
| CG5731 | DRSC02883 | 94994 | 80023 | – | 2673 | 6653 |
| SMC2 | DRSC07544 | 97043 | 64161 | – | 3907 | 2745 |
| CG16852 | DRSC01876 | 1.09e5 | 45179 | – | 3170 | 3941 |
| CG14971 | DRSC08430 | 81843 | 75933 | – | 3468 | 2818 |
| Mdr49 | DRSC07466 | 1.53e5 | 72069 | – | 5671 | 1285 |
| CG5440 | DRSC00685 | 1.13e5 | 94632 | – | 3154 | 2390 |
| Caf1-105 | DRSC06209 | 1.28e5 | 44036 | – | 2691 | 3315 |
| hts | DRSC05791 | 1.23e5 | 2.62e5 | – | 3781 | 11163 |
| Sara | DRSC04653 | 66280 | 75513 | – | 1661 | 6249 |
| CG42675 | DRSC12157 | 1.01e5 | 71500 | – | 4086 | 2640 |
| CG16894 | DRSC06634 | 1.57e5 | 1.02e6 | 81169 | 4453 | 57462 |
| CG13855 | DRSC14705 | 9.59e5 | 2.20e5 | – | 48587 | 5607 |
| Swt1 | DRSC20028 | 89128 | 91779 | – | 2149 | 2116 |
| Vdup1 | DRSC08586 | 91032 | 50660 | – | 2821 | 4291 |
| CG31213 | DRSC14312 | 5.73e5 | 72360 | – | 29826 | 2051 |
| CG31213 | DRSC15647 | 5.77e5 | 1.02e5 | – | 29020 | 2451 |
| CG31642 | DRSC02919 | 1.31e5 | 80550 | – | 4192 | 3525 |
